Some of the results follow.
How the values were obtained:
Experiment in all cases: log2 fold change, soluble protein after heating vs DMSO (PISA); higher = thermal stabilisation; K562 cells, 10 uM, 30 min; active = over 0.2 and 3.5 SD of the protein, either way, in both replicates (recomputed)
[1] = compound: CS(=O)(=O)c1ccc(-c2cnc(N)c(C(=O)Nc3ccccc3)n2)cc1
Outline: (§1)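 K562 cells at 2×10^6 cells/mL were given 10 μM compound for 30 min. Aliquots then went through 3 min of heating across 48°C-58°C, were pooled, and were extracted in PBS with 0.5% NP-40 at 4°C, and the supernatant after 21,000xg for 90 min was quantified by TMTpro 16plex LC-MS/MS with channel sums equalised. Thermal stability relative to control samples, from duplicates, is given as log2 fold change.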

The chains behind the UniProt entries cited, without tags or fusion partners. Where a name states a change or a piece, a line headed by the entry shows the natural chain unless it says otherwise.
UniProt Q9UFF9, whole entry, looked up: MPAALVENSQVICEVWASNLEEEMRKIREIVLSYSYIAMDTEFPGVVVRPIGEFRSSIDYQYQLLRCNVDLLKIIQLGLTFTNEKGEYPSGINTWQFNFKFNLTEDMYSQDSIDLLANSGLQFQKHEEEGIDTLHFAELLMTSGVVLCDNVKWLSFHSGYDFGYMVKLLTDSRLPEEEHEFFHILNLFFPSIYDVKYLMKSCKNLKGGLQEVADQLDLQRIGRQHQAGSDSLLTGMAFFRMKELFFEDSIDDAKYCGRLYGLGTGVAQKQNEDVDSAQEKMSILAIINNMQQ
UniProt O76031, whole entry, looked up: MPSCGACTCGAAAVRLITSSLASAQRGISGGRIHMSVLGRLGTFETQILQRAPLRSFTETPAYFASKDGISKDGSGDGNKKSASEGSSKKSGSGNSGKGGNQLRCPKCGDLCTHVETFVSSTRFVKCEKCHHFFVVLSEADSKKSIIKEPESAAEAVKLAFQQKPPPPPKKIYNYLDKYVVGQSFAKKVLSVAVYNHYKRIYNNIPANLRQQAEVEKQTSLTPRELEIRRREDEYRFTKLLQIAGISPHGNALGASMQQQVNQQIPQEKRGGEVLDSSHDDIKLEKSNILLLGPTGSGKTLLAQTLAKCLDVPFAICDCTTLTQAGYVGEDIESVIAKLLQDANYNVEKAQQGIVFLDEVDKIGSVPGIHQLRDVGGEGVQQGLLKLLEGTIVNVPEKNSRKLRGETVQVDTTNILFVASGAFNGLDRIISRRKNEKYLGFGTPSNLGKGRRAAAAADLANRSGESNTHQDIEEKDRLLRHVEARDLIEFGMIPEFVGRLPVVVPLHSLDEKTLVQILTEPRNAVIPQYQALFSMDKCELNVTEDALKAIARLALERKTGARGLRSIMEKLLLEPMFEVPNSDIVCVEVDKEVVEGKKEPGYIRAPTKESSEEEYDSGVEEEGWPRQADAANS
UniProt O95628: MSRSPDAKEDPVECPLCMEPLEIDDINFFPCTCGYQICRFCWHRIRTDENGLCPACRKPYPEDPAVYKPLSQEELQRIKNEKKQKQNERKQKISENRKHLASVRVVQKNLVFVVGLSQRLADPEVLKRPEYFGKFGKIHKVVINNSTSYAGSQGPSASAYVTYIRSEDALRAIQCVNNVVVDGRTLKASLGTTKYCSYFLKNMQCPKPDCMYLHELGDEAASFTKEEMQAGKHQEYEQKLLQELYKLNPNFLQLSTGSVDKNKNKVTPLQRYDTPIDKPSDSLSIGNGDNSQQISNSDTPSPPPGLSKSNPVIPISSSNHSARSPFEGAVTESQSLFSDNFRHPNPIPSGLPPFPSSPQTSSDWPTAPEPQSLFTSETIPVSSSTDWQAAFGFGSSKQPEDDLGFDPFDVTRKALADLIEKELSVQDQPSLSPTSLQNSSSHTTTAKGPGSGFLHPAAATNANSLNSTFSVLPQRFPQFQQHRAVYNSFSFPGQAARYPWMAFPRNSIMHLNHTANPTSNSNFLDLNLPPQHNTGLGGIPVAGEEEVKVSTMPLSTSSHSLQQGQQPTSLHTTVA
UniProt O75122: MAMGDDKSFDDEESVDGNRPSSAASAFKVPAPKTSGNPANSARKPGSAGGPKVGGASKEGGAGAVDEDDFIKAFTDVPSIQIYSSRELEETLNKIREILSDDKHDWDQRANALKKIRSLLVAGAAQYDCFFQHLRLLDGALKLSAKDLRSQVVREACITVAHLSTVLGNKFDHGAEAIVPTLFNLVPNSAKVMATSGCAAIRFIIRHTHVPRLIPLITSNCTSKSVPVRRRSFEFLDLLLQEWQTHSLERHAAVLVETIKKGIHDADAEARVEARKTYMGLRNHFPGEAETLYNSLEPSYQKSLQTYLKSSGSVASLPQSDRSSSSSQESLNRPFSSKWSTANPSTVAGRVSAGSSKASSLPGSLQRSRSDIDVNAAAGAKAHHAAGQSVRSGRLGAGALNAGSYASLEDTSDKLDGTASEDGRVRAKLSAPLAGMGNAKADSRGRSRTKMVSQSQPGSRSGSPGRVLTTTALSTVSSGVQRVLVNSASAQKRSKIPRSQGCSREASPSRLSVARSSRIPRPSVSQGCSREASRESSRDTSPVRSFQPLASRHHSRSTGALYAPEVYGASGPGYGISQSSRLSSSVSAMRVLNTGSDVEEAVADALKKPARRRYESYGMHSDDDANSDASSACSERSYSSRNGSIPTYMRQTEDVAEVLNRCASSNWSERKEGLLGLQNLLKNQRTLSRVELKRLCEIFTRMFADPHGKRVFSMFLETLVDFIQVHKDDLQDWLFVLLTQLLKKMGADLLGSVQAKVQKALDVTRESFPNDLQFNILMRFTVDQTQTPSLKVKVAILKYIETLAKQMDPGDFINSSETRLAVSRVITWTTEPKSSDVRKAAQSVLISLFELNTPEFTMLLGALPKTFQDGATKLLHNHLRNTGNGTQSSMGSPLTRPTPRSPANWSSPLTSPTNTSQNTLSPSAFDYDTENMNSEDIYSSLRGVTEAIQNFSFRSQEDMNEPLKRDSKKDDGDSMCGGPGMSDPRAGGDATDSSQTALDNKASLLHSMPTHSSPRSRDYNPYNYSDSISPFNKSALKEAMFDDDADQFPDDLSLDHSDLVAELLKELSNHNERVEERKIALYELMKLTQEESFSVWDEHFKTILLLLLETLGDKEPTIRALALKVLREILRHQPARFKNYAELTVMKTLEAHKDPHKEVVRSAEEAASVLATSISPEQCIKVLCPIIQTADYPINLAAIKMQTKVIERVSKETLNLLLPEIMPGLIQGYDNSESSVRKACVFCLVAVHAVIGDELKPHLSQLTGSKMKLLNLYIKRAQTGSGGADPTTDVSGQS
UniProt Q9Y4C5: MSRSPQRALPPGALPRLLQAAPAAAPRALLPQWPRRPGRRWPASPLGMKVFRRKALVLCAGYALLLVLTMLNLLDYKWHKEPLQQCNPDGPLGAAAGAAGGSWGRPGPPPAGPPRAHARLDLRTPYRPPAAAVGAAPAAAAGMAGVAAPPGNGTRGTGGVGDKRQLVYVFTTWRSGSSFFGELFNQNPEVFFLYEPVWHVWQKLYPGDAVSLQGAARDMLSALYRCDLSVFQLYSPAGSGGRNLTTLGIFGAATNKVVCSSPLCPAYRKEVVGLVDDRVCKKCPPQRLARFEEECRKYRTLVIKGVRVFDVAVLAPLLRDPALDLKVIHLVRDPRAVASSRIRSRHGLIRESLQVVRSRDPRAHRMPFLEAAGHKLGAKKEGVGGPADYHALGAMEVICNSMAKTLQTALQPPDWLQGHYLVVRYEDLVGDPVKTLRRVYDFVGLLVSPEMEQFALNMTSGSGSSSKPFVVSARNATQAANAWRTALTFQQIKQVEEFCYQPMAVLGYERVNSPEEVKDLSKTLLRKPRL
UniProt Q9Y3Y2: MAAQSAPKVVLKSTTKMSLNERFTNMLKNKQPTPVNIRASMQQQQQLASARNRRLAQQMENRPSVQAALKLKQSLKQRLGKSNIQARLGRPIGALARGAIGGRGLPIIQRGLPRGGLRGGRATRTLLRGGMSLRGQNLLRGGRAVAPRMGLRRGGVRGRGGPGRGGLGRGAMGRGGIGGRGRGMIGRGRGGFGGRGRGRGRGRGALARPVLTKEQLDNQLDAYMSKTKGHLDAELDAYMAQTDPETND
UniProt Q9UIV1, whole entry, looked up: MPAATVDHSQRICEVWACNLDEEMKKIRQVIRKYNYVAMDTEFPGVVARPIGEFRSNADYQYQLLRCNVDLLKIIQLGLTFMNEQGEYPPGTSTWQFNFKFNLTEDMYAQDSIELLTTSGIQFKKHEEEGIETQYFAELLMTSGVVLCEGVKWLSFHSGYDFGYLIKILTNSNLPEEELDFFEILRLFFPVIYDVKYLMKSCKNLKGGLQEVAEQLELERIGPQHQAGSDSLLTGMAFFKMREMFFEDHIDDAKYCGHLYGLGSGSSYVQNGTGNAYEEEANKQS
UniProt P09497: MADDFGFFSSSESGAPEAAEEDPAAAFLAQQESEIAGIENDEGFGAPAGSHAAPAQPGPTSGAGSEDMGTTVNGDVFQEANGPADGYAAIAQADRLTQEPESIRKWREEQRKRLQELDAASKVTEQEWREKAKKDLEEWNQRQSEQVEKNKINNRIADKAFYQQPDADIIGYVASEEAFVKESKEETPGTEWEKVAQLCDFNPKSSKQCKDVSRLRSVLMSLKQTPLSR
UniProt P51790: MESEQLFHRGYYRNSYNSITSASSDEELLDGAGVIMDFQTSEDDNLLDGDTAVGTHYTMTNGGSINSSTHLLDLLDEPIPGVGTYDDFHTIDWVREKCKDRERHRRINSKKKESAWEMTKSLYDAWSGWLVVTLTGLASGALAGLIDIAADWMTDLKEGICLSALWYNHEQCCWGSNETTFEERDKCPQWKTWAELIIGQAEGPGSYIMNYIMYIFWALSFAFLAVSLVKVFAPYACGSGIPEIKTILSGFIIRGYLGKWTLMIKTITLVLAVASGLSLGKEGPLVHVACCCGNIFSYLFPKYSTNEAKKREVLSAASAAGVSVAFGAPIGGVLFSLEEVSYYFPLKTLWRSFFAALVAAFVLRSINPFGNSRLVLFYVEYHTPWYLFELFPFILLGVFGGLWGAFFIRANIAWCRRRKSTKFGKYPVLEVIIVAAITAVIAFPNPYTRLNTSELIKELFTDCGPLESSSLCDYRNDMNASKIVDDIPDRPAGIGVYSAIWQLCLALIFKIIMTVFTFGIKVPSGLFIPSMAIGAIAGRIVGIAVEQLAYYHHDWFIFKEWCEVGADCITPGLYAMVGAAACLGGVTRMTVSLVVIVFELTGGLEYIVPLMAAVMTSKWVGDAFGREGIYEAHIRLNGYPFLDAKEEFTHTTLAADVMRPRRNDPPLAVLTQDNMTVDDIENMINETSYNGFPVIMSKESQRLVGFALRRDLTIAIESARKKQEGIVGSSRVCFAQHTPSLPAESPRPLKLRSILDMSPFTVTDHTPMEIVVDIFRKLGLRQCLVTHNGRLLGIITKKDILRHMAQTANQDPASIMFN
UniProt P39059: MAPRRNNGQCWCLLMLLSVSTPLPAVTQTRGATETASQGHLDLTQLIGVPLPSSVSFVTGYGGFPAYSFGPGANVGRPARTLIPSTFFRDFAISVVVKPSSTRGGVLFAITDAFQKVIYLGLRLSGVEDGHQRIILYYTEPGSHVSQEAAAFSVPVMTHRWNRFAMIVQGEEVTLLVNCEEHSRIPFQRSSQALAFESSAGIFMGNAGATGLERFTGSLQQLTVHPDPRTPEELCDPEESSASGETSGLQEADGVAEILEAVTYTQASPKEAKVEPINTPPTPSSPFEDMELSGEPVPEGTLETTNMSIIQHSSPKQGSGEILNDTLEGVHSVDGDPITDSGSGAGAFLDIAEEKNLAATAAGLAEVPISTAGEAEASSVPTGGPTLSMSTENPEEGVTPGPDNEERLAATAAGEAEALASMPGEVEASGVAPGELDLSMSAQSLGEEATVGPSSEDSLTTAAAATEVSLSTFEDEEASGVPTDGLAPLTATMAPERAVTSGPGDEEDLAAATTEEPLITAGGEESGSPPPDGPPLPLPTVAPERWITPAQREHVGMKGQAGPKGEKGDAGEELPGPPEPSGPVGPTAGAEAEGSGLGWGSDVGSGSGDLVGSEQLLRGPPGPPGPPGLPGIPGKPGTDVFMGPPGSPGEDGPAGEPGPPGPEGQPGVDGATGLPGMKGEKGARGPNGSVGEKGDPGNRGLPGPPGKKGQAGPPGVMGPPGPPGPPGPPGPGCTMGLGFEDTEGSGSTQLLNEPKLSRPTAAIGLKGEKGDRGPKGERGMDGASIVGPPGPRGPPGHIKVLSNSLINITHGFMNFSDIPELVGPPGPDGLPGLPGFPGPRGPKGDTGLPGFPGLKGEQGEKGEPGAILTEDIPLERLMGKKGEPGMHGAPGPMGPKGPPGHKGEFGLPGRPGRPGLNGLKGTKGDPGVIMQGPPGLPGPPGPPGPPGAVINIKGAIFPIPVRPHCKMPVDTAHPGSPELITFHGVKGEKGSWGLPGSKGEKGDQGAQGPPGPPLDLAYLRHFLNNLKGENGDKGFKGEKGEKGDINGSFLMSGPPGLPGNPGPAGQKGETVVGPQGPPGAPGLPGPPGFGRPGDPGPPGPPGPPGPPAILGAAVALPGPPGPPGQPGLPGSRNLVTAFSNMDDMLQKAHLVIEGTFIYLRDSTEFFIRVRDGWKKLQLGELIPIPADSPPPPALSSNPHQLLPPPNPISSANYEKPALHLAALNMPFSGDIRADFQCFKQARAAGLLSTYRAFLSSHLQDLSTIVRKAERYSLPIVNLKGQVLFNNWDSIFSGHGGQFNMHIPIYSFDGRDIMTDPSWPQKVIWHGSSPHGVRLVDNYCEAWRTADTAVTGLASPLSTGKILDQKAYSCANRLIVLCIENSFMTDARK

crizotinib = compound: C[C@@H](Oc1cc(-c2cnn(C3CCNCC3)c2)cnc1N)c1c(Cl)ccc(F)c1Cl [crizotinib]
Outline: as §1

[2] = compound: C[C@@H]1COCCN1C2=NC(=NC(=C2)C3(CC3)S(=O)(=O)C)C4=C5C=CNC5=CC=C4
Outline: as §1

[3] = compound: C[C@H](C1=CC=C(C=C1)C(=O)NC2=C3C=CNC3=NC=C2)N
Outline: as §1

gandotinib = compound: Cc1cc(Nc2cc(CN3CCOCC3)c3nc(C)c(Cc4ccc(Cl)cc4F)n3n2)n[nH]1 [gandotinib]
Outline: as §1

[4] = compound: Cc1cc(SCc2sc(-c3ccc(C(F)(F)F)cc3)nc2C)ccc1OCC(=O)O
Outline: as §1

doramapimod = compound: Cc1ccc(-n2nc(C(C)(C)C)cc2NC(=O)Nc2ccc(OCCN3CCOCC3)c3ccccc23)cc1 [doramapimod]
Outline: as §1

ispinesib = compound: Cc1ccc(C(=O)N(CCCN)[C@@H](c2nc3cc(Cl)ccc3c(=O)n2Cc2ccccc2)C(C)C)cc1 [ispinesib]
Outline: as §1

bafetinib = compound: Cc1ccc(NC(=O)c2ccc(CN3CC[C@H](N(C)C)C3)c(C(F)(F)F)c2)cc1Nc1nccc(-c2cncnc2)n1 [bafetinib]
Outline: as §1

[5] = compound: Cc1cccc(CC(=O)N2CCc3c2ccc(-c2cn(C)c4ncnc(N)c24)c3F)n1
Outline: as §1

nilotinib = compound: Cc1cn(-c2cc(NC(=O)c3ccc(C)c(Nc4nccc(-c5cccnc5)n4)c3)cc(C(F)(F)F)c2)cn1 [nilotinib]
Outline: as §1

[6] = compound: Cc1nc(Nc2n[nH]c3c2CN(C(=O)N[C@H](CN(C)C)c2ccccc2)C3(C)C)c2sccc2n1
Outline: as §1

dasatinib = compound: Cc1nc(Nc2ncc(C(=O)Nc3c(C)cccc3Cl)s2)cc(N2CCN(CCO)CC2)n1 [dasatinib]
Outline: as §1

[7] = compound: Cc1ncc(-c2ccnc(Nc3ccc(S(C)(=O)=O)cc3)n2)n1C(C)C
Outline: as §1

[8] = compound: Cn1cc(-c2ccc3c(c2)CCN3C(=O)Cc2cccc(C(F)(F)F)c2)c2c(N)ncnc21
Outline: as §1

[9] = compound: Cn1cc(-c2ccc3nnc(C(F)(F)c4ccc5ncccc5c4)n3n2)cn1
Outline: as §1

tipifarnib = compound: Cn1cncc1[C@@](N)(c1ccc(Cl)cc1)c1ccc2c(c1)c(-c1cccc(Cl)c1)cc(=O)n2C [tipifarnib]
Outline: as §1

mubritinib = compound: FC(F)(F)c1ccc(/C=C/c2nc(COc3ccc(CCCCn4ccnn4)cc3)co2)cc1 [mubritinib]
Outline: as §1

duvelisib = compound: C[C@H](Nc1ncnc2nc[nH]c12)c1cc2cccc(Cl)c2c(=O)n1-c1ccccc1 [duvelisib]
Outline: as §1

tozasertib = compound: Cc1cc(Nc2cc(N3CCN(C)CC3)nc(Sc3ccc(NC(=O)C4CC4)cc3)n2)n[nH]1 [tozasertib]
Outline: as §1

Target	log2 fold change [1]	log2 fold change (crizotinib)	log2 fold change [2]	log2 fold change [3]	log2 fold change (gandotinib)	log2 fold change [4]	log2 fold change (doramapimod)	log2 fold change (ispinesib)	log2 fold change (bafetinib)	log2 fold change [5]	log2 fold change (nilotinib)	log2 fold change [6]	log2 fold change (dasatinib)	log2 fold change [7]	log2 fold change [8]	log2 fold change [9]	log2 fold change (tipifarnib)	log2 fold change (mubritinib)	log2 fold change (duvelisib)	log2 fold change (tozasertib)
CNOT1 (UniProt A5YKK6)	inactive: 0.006	inactive: -0.087	inactive: -0.034	inactive: 0.033	inactive: -0.043	inactive: 0.076	inactive: -0.025	inactive: -0.038	inactive: 0.009	inactive: 0.033	inactive: -0.066	inactive: -0.058	inactive: -0.106	inactive: -0.014	inactive: 0.023	inactive: -0.035	inactive: -0.061	inactive: 0.052		
CNOT8 (UniProt Q9UFF9)	inactive: 0.064	inactive: -0.029	inactive: -0.086	inactive: 0.222		inactive: 0.174	inactive: -0.054	inactive: -0.07	inactive: 0.019		inactive: -0.002	inactive: -0.012	inactive: -0.182	inactive: -0.05	inactive: -0.045	inactive: 0.015	inactive: 0.015	inactive: 0.106	inactive: -0.1	inactive: -0.074
CNOT2 (UniProt Q9NZN8)	inactive: 0.028	inactive: -0.019	inactive: 0.038	inactive: 0.046	inactive: -0.045	inactive: 0.077	inactive: -0.012	inactive: -0.02	inactive: -0.002	inactive: 0	inactive: 0.048	inactive: -0.063	inactive: -0.035	inactive: 0.01	inactive: -0.055	inactive: 0.022	inactive: -0.063	inactive: 0.054		
CLPX (UniProt O76031)	inactive: 0.061	active: 0.291	inactive: 0.027	inactive: 0.004	inactive: 0.003	inactive: -0.05	inactive: -0.002	inactive: 0.018	inactive: 0.008	inactive: -0.074	inactive: -0.006	inactive: 0.042	inactive: 0.006	inactive: -0.019	inactive: -0.012	inactive: 0.032	inactive: 0.052	inactive: -0.048		
CNOT4 isoform 6 (UniProt O95628)	inactive: 0.007	inactive: 0.031	inactive: 0.056	inactive: -0.076	inactive: -0.005	inactive: 0.014	inactive: -0.02	inactive: 0.066	inactive: -0.088	inactive: -0.036	inactive: -0.024	inactive: -0.042	inactive: -0.034	inactive: -0.003	inactive: 0.021	inactive: 0.033	inactive: 0.027	inactive: 0.023		
CLASP2 isoform 3 (UniProt O75122)	inactive: -0.035	inactive: -0.201	inactive: 0.044	inactive: -0.029	active: -0.314	inactive: 0.074	inactive: -0.007	inactive: -0.054	inactive: 0.016	inactive: 0.058	inactive: -0.067	active: -0.279	inactive: -0.175	inactive: -0.188	inactive: 0.013	inactive: 0.012	inactive: -0.089	inactive: 0.022		
CHST2 (UniProt Q9Y4C5)	inactive: 0.186	inactive: 0.004	inactive: -0.236	inactive: -0.03		inactive: 0.165	inactive: 0.074		inactive: -0.032		inactive: 0.114	inactive: -0.129	inactive: 0.087	inactive: 0.105	inactive: -0.146		inactive: -0.031	inactive: 0.003	inactive: -0.079	inactive: 0.053
CHTOP isoform 3 (UniProt Q9Y3Y2)	inactive: -0.43	inactive: -0.256	inactive: -0.211	inactive: 0.215		inactive: -0.038	inactive: 0.059						inactive: 0.137		inactive: -0.624			inactive: 0.149	inactive: 0.137	inactive: 0.067
COASY isoform 2 (UniProt Q13057)	inactive: -0.052	inactive: -0.071	inactive: 0.133	inactive: -0.09	inactive: -0.058	inactive: 0.045	inactive: -0.063	inactive: -0.057	inactive: -0.009	inactive: 0.089	inactive: -0.19	inactive: 0.001	inactive: -0.132	inactive: 0.005	inactive: 0.037	inactive: -0.062	inactive: -0.102	inactive: -0.196		
CNOT7 (UniProt Q9UIV1)	inactive: -0.052	inactive: -0.097	inactive: 0.043	inactive: 0.219	inactive: -0.003	inactive: 0.022	inactive: 0.07	inactive: -0.072	inactive: 0.059	inactive: -0.037	inactive: -0.077	inactive: -0.057	inactive: -0.255	inactive: 0.002	inactive: -0.034	inactive: -0.051	inactive: -0.075	inactive: 0.014		
CLTB (UniProt P09497)	inactive: -0.058	inactive: 0.007	inactive: -0.004	inactive: -0.047	inactive: 0.026	inactive: -0.056	inactive: -0.012	inactive: 0.085	inactive: 0.095	inactive: 0.002	inactive: 0.077	inactive: 0.024	inactive: 0.081	inactive: 0.005	inactive: -0.02	inactive: -0.019	inactive: -0.006	inactive: -0.016		
CNOT11 (UniProt Q9UKZ1)	inactive: -0.031	inactive: -0.085	inactive: -0.189	inactive: 0.031		inactive: -0.01	inactive: 0.017	inactive: -0.072	inactive: -0.048		inactive: -0.094	inactive: -0.029	inactive: 0.07	inactive: 0.052	inactive: -0.065	inactive: -0.029		inactive: -0.066	inactive: -0.035	inactive: -0.072
CNN2 (UniProt Q99439)	inactive: -0.003	inactive: -0.058	inactive: 0.058	inactive: -0.005	inactive: -0.088	inactive: 0.012	inactive: 0.007	inactive: -0.059	inactive: -0.001	inactive: 0.052	inactive: -0.075	inactive: -0.074	inactive: -0.14	inactive: 0.006	inactive: 0.011	inactive: 0.044	inactive: -0.16	inactive: 0.051		
CLCN3 (UniProt P51790)	inactive: -0.05	inactive: -0.191	inactive: 0.012	inactive: -0.003	inactive: -0.062	inactive: -0.006	inactive: -0.03	active: -0.549	inactive: -0.112	inactive: -0.022	inactive: -0.007	inactive: 0.04	inactive: 0.019	inactive: -0.027	inactive: 0.03	inactive: 0.049	inactive: 0.015	inactive: 0.024		
COL15A1 (UniProt P39059)	inactive: 0.11	inactive: -0.064	inactive: -0.054	inactive: -0.109		inactive: 0.066	inactive: 0.062	inactive: -0.137	inactive: 0.25		inactive: 0.092	inactive: 0.153	inactive: 0.125	inactive: -0.008	inactive: -0.002	inactive: 0.033	inactive: 0	inactive: 0	inactive: -0.321	inactive: 0.033
CLSPN (UniProt Q9HAW4)	inactive: -0.028	inactive: 0.039	inactive: -0.04	inactive: -0.046	inactive: 0.047	inactive: -0.104	inactive: 0.001	inactive: 0.107	inactive: -0.071	inactive: -0.035	inactive: 0.018	inactive: -0.011	inactive: 0.094	inactive: -0.123	inactive: -0.021	inactive: -0.03	inactive: 0.045	inactive: 0.053		
CMTR1 (UniProt Q8N1G2)	inactive: 0.02	inactive: 0.014	inactive: 0.011	inactive: 0.059	inactive: 0.025	inactive: 0.029	inactive: -0.036	inactive: -0.002	inactive: -0.054	inactive: 0	inactive: -0.059	inactive: -0.01	inactive: -0.059	inactive: 0.035	inactive: -0.033	inactive: 0.044	inactive: -0.03	inactive: 0.029		

Single values from the entries so far:
For log2 fold change (bafetinib), CLSPN (UniProt Q9HAW4) reads inactive: -0.071
For log2 fold change (doramapimod), CHTOP isoform 3 (UniProt Q9Y3Y2) reads inactive: 0.059

Source: the supplement of paper PMC10849652
